Experimental data as given in US20170058032A1 (published 2017).
Residue numbers refer to the chain shown, from its start. In names and notes the source's numbering stands. Results are given in words; binding and its absence hold for the method and conditions named. Some entries that bind do so weakly or less than the wild type. Values belong to the binder of their own block, whether it stands above or below them.

Sequences of proteins named here, by UniProt entry; tags and fusion partners are left off. A change or cut given only in a name is not applied to a line headed by its entry.
UniProt P40259: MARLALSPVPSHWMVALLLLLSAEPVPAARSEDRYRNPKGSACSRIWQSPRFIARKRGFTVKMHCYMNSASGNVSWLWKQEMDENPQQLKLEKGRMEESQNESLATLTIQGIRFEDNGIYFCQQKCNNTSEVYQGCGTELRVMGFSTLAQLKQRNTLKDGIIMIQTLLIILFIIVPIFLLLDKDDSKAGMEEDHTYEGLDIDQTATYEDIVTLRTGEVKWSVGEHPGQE

Molecular target: extracellular domain of human CD79b (huCD79becd) (human) (UniProt P40259)
Test: phage selection on plate-bound antigen

binding: binds
B7: huMA79b graft variant, SEQ ID NO: 89 (Fab, name in Kabat numbering, V domains shown)
VH: EVQLVESGGGLVQPGGSLRLSCAASGYTFSSYWIEWVRQAPGKGLEWVGEILPGGGDTNYNEIFKGRFTISADTSKNTAYLQMNSLRAEDTAVYYCTRRVPVKLDYWGQGTLVTVSS
VL: DIQMTQSPSSLSASVGDRVTITCKASQSVDYDGDSFLNWYQQKPGKAPKLLIYAASNLESGVPSRFSGSGSGTDFTLTISSLQPEDFATYYCQQSNEDPLTFGQGTKVEIKR

binding: binds
B8: huMA79b graft variant, SEQ ID NO: 100 (Fab, name in Kabat numbering, V domains shown)
VH: B7 VH with K103R
VL: B7 VL

binding: binds
B9: huMA79b graft variant, SEQ ID NO: 90 (F100L) (Fab, name in Kabat numbering, V domains shown)
VH: B7 VH with K103Y
VL: B7 VL

binding: binds
B11: huMA79b graft variant, SEQ ID NO: 85 (Fab, name in Kabat numbering, V domains shown)
VH: B7 VH with Y27F, T28P, S30T, E35S, K103Y, L104F
VL: B7 VL

binding: binds
B12: huMA79b graft variant, SEQ ID NO: 92 (Fab, name in Kabat numbering, V domains shown)
VH: B7 VH with V102F, K103C
VL: B7 VL

binding: binds
B14: huMA79b graft variant, SEQ ID NO: 91 (V98I) (Fab, name in Kabat numbering, V domains shown)
VH: B7 VH with V102I, K103Y, L104F
VL: B7 VL

binding: binds
B15: huMA79b graft variant, SEQ ID NO: 99 (Fab, name in Kabat numbering, V domains shown)
VH: B7 VH with K103V
VL: B7 VL

binding: binds
B17: huMA79b graft variant, SEQ ID NO: 96 (Fab, name in Kabat numbering, V domains shown)
VH: B7 VH with V102I, K103R, L104F
VL: B7 VL

binding: binds
B18: huMA79b graft variant, SEQ ID NO: 106 (V96I) (Fab, name in Kabat numbering, V domains shown)
VH: B7 VH with V100I, K103Y, L104F
VL: B7 VL

binding: binds
B20: huMA79b graft variant, SEQ ID NO: 95 (Fab, name in Kabat numbering, V domains shown)
VH: B7 VH with V102I
VL: B7 VL

binding: binds
B21: huMA79b graft variant, SEQ ID NO: 101 (Y99R) (Fab, name in Kabat numbering, V domains shown)
VH: B7 VH with K103R, L104F
VL: B7 VL

binding: binds
B26: huMA79b graft variant, SEQ ID NO: 87 (V98I and F100L) (Fab, name in Kabat numbering, V domains shown)
VH: B7 VH with V102I, K103Y
VL: B7 VL

binding: binds
B27: huMA79b graft variant, SEQ ID NO: 98 (D101S) (Fab, name in Kabat numbering, V domains shown)
VH: B7 VH with K103Y, L104F, D105S
VL: B7 VL

binding: binds
B31: huMA79b graft variant, SEQ ID NO: 86 (Fab, name in Kabat numbering, V domains shown)
VH: B7 VH with Y27F, T28P, S30N, S31R, E35N, K103Y, L104F
VL: B7 VL

binding: binds
B32: huMA79b graft variant, SEQ ID NO: 102 (Fab, name in Kabat numbering, V domains shown)
VH: B7 VH with K103F
VL: B7 VL

binding: binds
B34: huMA79b graft variant, SEQ ID NO: 105 (Fab, name in Kabat numbering, V domains shown)
VH: B7 VH with V100R, K103C
VL: B7 VL

The next lines start with the binder.

B1: huMA79b graft variant, SEQ ID NO: 80 (Fab, name in Kabat numbering, V domains shown)
VH: B7 VH with T28P, S30R, E35N, K103Y, L104F
VL: B7 VL
binding: binds

B2: huMA79b graft variant, SEQ ID NO: 38 (Fab, name in Kabat numbering, V domains shown)
VH: B7 VH with K103Y, L104F
VL: B7 VL with S56R, N57R, E59R, S60T
binding: binds

B3: huMA79b graft variant, SEQ ID NO: 43 (Fab, name in Kabat numbering, V domains shown)
VH: B7 VH with K103Y, L104F
VL: B7 VL with S56R, N57K, E59G, S60T
binding: binds

B4: huMA79b graft variant, SEQ ID NO: 41 (Fab, name in Kabat numbering, V domains shown)
VH: B7 VH with K103Y, L104F
VL: B7 VL with S56R, N57K, E59L, S60R
binding: binds

B5: huMA79b graft variant, SEQ ID NO: 47 (E93Q) (Fab, name in Kabat numbering, V domains shown)
VH: B7 VH with K103Y, L104F
VL: B7 VL with E97Q
binding: binds

B6: huMA79b graft variant, SEQ ID NO: 37 (Fab, name in Kabat numbering, V domains shown)
VH: B7 VH with K103Y, L104F
VL: B7 VL with S56R, N57Y, E59R, S60R
binding: binds

B10: huMA79b graft variant, SEQ ID NO: 42 (Fab, name in Kabat numbering, V domains shown)
VH: B7 VH with K103Y, L104F
VL: B7 VL with S56R, N57K, E59K, S60N
binding: binds

B13: huMA79b graft variant, SEQ ID NO: 44 (Fab, name in Kabat numbering, V domains shown)
VH: B7 VH with K103Y, L104F
VL: B7 VL with S56R, N57K, E59G, S60G
binding: binds

B16: huMA79b graft variant, SEQ ID NO: 45 (Fab, name in Kabat numbering, V domains shown)
VH: B7 VH with K103Y, L104F
VL: B7 VL with S56R, N57K, E59A, S60R
binding: binds

B19: huMA79b graft variant, SEQ ID NO: 46 (E93A) (Fab, name in Kabat numbering, V domains shown)
VH: B7 VH with K103Y, L104F
VL: B7 VL with E97A
binding: binds

B22: huMA79b graft variant, SEQ ID NO: 81 (Fab, name in Kabat numbering, V domains shown)
VH: B7 VH with T28P, S30R, S31G, K103Y, L104F
VL: B7 VL
binding: binds

B23: huMA79b graft variant, SEQ ID NO: 82 (Fab, name in Kabat numbering, V domains shown)
VH: B7 VH with T28P, S30N, S31R, K103Y, L104F
VL: B7 VL
binding: binds

B24: huMA79b graft variant, SEQ ID NO: 50 (E93L) (Fab, name in Kabat numbering, V domains shown)
VH: B7 VH with K103Y, L104F
VL: B7 VL with E97L
binding: binds

B25: huMA79b graft variant, SEQ ID NO: 40 (Fab, name in Kabat numbering, V domains shown)
VH: B7 VH with K103Y, L104F
VL: B7 VL with S56R, N57Q, L58R, E59K, S60R
binding: binds

B28: huMA79b graft variant, SEQ ID NO: 83 (Fab, name in Kabat numbering, V domains shown)
VH: B7 VH with T28P, S30N, S31G, E35N, K103Y, L104F
VL: B7 VL
binding: binds

B29: huMA79b graft variant, SEQ ID NO: 84 (Fab, name in Kabat numbering, V domains shown)
VH: B7 VH with T28N, F29V, I34L, E35S, K103Y, L104F
VL: B7 VL
binding: binds

B30: huMA79b graft variant, SEQ ID NO: 49 (E93D) (Fab, name in Kabat numbering, V domains shown)
VH: B7 VH with K103Y, L104F
VL: B7 VL with E97D
binding: binds

B33: huMA79b graft variant, SEQ ID NO: 39 (Fab, name in Kabat numbering, V domains shown)
VH: B7 VH with K103Y, L104F
VL: B7 VL with S56R, N57R, E59G, S60R
binding: binds
